Data reported in US20150284424 (published 2015).

Tests used:
[1] = general procedure: peptide synthesis; chloromethylated polystyrene; DIC; settings: whole synthesis, by HPLC analysis in the mixture, scale 1.3 mmoles eq.
[2] = general procedure: peptide synthesis; chloromethylated polystyrene resin; DIC; settings: 220 nm

H-D-β-Nal-Cys-(Acm)-Tyr-D-Trp-Lys-Val-Cys(Acm)-Thr-NH2
crude mass [1]: 870 mg | crude HPLC purity ([2]; whole synthesis, isocratic HPLC): 96%

H-D-β-Nal-[Cys-Tyr-D-Trp-Lys-Val-Cys]-Thr-NH2
final purity (method not given) ([2]; oxidative folding step, HPLC, VYDAC C18, isocratic 26% CH3CN/0.1% TFA): 99%
